Values quoted from earlier work, collected in US20150250746A1, “ACAMPROSATE FORMULATIONS, METHODS OF USING THE SAME, AND COMBINATIONS COMPRISING THE SAME” (Synchroneuron Inc., priority 2013, published 2015).
The name of at least one read-out is uncertain.

Settings: cited from earlier work

## CC(=O)NCCCS(=O)(=O)O [acamprosate, calcium N-acetylhomotaurinate]
  permeability: low permeability
